The target in this data set is His-DDX39B (UniProt Q13838). As to the kind of experiment: EMSA. Particulars: 0-300 ng protein, bound less than -1C; EMSA: bacterially expressed DDX39B, 32P probes, non-denaturing 5% acrylamide gel; binding buffer, pH and temperature not given; recombinant protein; protein details: N-terminal His (pET-45b, 5' polyhistidine); label: 32P (T4 PNK).

Amino acid sequences for entries named in this document (tags omitted).
UniProt Q13838, whole entry: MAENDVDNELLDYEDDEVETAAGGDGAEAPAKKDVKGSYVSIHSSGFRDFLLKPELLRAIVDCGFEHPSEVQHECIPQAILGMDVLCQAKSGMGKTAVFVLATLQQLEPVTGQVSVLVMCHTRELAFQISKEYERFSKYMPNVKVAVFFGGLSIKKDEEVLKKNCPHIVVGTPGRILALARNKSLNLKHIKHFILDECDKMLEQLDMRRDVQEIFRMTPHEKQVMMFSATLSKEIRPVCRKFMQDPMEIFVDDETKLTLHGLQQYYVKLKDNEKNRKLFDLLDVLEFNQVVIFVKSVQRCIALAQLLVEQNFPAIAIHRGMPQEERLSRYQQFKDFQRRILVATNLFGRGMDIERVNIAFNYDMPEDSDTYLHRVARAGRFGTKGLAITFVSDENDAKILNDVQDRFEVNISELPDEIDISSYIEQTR

The exact form of at least one protein or probe is not confirmed. A weaker result is weaker than the reference pair of the same experiment.

Consider “TCGAGTTAGATGGGGAATTTCCAGGCAC (double strand) [-1A kB probe]”, for which the binding result is recorded as “binds more weakly”.

For the origin of these results see paper PMC7093963.
